Source: article PMC3257293
Changes are numbered by the printed parent chain. These are yes or no findings as the source states them, for the method shown. Some results given as binding are weak or reduced against the parent protein; the word gives no strength. Where a sequence is shown, tags or fusion partners need not be part of it.

Legend:
[1] = biological target: T1, Bfa1^4A (SSS452AAA S559A), fused to the DNA binding domain in pGilda (S. cerevisiae) (UniProt P47113); experiment: two-hybrid; Cdc5, Tem1 and Bub2 fused to the activation domain in pJG4-5; Bfa1 and each Bfa1 mutant fused to the DNA binding domain in pGilda; yeast strain EGY48 with the reporter plasmid pSH18-34; measured quantitatively
T1 sequence: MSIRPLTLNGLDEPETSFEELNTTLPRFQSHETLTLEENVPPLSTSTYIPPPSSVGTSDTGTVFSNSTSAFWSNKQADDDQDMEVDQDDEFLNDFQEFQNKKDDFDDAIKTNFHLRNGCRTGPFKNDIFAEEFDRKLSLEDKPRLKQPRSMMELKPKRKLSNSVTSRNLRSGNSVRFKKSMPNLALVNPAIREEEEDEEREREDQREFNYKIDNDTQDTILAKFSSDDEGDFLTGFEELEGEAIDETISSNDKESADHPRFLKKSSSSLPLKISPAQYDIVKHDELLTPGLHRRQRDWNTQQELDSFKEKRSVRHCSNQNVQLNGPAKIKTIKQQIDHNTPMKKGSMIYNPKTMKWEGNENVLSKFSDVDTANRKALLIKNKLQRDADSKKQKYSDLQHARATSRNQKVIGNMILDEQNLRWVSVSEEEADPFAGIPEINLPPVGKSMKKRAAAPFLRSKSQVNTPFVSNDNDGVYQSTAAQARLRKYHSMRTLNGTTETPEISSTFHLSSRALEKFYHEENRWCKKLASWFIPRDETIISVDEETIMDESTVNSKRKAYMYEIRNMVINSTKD

[2] = biological target: T2, Bfa1^W422A, fused to the DNA binding domain in pGilda (S. cerevisiae) (UniProt P47113); experiment: as above
T2 sequence: T1 sequence with W422A, A452S, A453S, A454S, A559S

binding [1]: binds
binding [2]: binds
B1: Cdc5, fused to the DNA activation domain in pJG4-5 (enzyme, UniProt P32562 1-705)
chain: MSLGPLKAINDKQLNTRSKLVHTPIKGNTADLVGKENHFKQTKRLDPNNDHHHQPAQKKKREKLSALCKTPPSLIKTRGKDYHRGHFLGEGGFARCFQIKDDSGEIFAAKTVAKASIKSEKTRKKLLSEIQIHKSMSHPNIVQFIDCFEDDSNVYILLEICPNGSLMELLKRRKVLTEPEVRFFTTQICGAIKYMHSRRVIHRDLKLGNIFFDSNYNLKIGDFGLAAVLANESERKYTICGTPNYIAPEVLMGKHSGHSFEVDIWSLGVMLYALLIGKPPFQARDVNTIYERIKCRDFSFPRDKPISDEGKILIRDILSLDPIERPSLTEIMDYVWFRGTFPPSIPSTVMSEAPNFEDIPEEQSLVNFKDCMEKSLLLESMSSDKIQRQKRDYISSIKSSIDKLEEYHQNRPFLPHSLSPGGTKQKYKEVVDIEAQRRLNDLAREARIRRAQQAVLRKELIATSTNVIKSEISLRILASECHLTLNGIVEAEAQYKMGGLPKSRLPKIKHPMIVTKWVDYSNKHGFSYQLSTEDIGVLFNNGTTVLRLADAEEFWYISYDDREGWVASHYLLSEKPRELSRHLEVVDFFAKYMKANLSRVSTFGREEYHKDDVFLRRYTRYKPFVMFELSDGTFQFNFKDHHKMAISDGGKLVTYISPSHESTTYPLVEVLKYGEIPGYPESNFREKLTLIKEGLKQKSTIVTVD
